Experimental data reported in the supplement of paper PMC10849652.
Some of the results follow.

Sequences of proteins named here, by UniProt entry; tags and fusion partners are left off. A change or cut given only in a name is not applied to a line headed by its entry.
UniProt Q8N9Q2: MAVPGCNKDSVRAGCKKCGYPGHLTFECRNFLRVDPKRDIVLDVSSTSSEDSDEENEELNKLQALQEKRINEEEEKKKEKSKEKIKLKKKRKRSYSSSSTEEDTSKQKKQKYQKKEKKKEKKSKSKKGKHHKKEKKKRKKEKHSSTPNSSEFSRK
UniProt Q9NUQ6: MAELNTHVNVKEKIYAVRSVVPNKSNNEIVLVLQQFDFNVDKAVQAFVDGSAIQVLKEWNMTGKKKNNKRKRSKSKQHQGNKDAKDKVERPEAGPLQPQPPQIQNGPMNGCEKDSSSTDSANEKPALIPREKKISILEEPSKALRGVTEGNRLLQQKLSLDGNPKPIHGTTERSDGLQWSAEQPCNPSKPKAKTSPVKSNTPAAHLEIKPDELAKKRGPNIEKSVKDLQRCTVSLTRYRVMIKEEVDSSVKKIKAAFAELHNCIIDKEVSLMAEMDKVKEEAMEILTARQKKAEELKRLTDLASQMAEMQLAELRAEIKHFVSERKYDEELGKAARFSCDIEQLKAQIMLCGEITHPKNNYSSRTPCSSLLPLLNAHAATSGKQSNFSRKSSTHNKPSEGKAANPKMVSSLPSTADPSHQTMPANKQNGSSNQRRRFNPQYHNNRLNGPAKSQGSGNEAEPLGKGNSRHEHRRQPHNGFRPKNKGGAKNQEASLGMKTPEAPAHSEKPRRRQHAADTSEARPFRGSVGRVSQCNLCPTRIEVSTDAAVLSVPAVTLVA
UniProt Q8N3U4: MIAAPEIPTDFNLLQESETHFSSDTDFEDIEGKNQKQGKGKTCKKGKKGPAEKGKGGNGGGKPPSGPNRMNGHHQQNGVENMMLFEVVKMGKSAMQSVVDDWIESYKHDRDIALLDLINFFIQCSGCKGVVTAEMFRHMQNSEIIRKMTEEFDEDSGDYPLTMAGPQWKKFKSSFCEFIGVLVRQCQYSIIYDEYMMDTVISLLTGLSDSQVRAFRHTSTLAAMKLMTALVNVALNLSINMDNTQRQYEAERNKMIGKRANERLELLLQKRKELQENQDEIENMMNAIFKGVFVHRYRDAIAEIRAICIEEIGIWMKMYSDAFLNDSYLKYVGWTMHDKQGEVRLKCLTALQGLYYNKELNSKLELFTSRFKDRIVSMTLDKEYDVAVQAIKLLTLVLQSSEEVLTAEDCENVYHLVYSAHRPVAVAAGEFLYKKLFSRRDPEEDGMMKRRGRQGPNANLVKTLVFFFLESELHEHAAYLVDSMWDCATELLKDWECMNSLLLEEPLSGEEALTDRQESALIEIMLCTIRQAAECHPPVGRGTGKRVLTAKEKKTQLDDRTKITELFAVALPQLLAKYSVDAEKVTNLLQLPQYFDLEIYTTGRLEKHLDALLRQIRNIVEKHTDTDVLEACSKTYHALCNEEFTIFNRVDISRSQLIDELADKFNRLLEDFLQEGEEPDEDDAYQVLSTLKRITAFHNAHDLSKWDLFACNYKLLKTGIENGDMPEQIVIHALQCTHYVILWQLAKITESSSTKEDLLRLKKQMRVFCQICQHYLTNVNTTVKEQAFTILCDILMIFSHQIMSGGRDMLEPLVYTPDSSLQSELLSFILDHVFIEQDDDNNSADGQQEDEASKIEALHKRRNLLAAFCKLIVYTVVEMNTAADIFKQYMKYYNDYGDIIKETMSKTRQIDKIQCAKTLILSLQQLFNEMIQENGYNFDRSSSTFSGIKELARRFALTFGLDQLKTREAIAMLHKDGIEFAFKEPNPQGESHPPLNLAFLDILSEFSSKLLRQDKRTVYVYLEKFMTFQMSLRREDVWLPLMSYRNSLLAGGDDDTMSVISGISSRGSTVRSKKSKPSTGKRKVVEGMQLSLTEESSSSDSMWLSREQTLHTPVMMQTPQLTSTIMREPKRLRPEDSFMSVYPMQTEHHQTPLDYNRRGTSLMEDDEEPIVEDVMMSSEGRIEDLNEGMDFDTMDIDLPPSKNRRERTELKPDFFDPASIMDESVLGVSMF
UniProt Q9BRL6: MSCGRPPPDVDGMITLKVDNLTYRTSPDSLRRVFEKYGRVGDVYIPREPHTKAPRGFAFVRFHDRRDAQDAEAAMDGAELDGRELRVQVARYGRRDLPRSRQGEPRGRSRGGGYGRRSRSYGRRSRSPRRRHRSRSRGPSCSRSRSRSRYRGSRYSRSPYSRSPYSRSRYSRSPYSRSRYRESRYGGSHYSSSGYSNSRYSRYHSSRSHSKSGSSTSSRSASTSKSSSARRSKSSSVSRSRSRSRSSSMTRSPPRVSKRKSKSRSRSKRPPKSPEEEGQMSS
UniProt Q68D10: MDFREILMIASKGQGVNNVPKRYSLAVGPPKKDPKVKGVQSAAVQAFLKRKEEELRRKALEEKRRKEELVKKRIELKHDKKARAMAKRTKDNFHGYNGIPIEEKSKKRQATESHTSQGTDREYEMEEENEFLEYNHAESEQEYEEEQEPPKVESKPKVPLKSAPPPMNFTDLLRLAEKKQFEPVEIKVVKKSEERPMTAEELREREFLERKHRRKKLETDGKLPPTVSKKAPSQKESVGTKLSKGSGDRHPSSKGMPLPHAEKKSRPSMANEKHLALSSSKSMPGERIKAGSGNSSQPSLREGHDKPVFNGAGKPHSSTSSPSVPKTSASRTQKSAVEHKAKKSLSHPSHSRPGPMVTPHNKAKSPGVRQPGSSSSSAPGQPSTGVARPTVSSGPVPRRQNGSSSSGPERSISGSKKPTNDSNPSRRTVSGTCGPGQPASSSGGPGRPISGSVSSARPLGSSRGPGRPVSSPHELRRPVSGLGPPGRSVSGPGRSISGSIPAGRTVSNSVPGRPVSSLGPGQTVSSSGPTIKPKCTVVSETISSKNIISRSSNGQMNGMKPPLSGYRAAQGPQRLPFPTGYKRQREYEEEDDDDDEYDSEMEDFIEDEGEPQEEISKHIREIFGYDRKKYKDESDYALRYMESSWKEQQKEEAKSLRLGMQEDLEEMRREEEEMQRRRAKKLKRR
UniProt Q11206: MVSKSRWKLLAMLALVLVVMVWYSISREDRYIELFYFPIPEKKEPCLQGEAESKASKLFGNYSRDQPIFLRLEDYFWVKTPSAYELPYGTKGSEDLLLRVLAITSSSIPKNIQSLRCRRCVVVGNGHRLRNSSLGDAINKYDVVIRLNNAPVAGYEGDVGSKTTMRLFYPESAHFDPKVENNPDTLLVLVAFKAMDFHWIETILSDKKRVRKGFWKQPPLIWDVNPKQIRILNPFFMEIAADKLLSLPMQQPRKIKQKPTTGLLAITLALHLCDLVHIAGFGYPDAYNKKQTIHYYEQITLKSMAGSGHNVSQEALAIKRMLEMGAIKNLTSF
UniProt P10124: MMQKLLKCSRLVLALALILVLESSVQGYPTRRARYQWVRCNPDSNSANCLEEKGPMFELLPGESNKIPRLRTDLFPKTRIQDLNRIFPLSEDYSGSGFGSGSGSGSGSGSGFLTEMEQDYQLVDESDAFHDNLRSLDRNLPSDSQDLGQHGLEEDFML

Key:
Experiment in all cases: log2 fold change, soluble protein after heating vs DMSO (PISA); higher = thermal stabilisation; K562 lysate, 10 uM; active = over 0.2 and 3.5 SD of the protein, either way, in both replicates (recomputed)
[1] = compound: CN1CC[C@H](c2c(O)cc(O)c3c(=O)cc(-c4ccccc4Cl)oc23)[C@H](O)C1 [alvocidib]
In short: (§1)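 To prepare the extract, K562 pellets were dounce-homogenised in PBS pH 7.4 with 1 mM MgCl2, giving crude material at 1 mg/mL protein. This was treated with 10 μM compound for 30 min, then heated in aliquots for 3 min over 48°C-58°C before pooling and addition of NP-40 to 0.5% at 4°C. Centrifugation at 21,000xg for 90 min left soluble protein in the supernatant, which TMTpro 16plex LC-MS/MS quantified with equalised channel sums. Results are log-two fold changes in thermal stability compared with solvent controls, from duplicates.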

[2] = compound: CN1CCc2c(c3ccccc3n2Cc2ccc(C(=O)NO)cc2)C1 [Tubastatin A]
In short: as §1

[3] = compound: CNC(=O)C1=CC=CC=C1NC2=NC(=NC=C2Cl)NC3=C(C=C(C=C3)N4CCOCC4)OC
In short: as §1

[4] = compound: COC(=O)N[C@@H](C)CNc1nccc(-c2cn(C(C)C)nc2-c2cc(Cl)cc(NS(C)(=O)=O)c2F)n1 [encorafenib]
In short: as §1

[5] = compound: COC(=O)[C@H](CCSC)NC(=O)C1=C(C=C(C=C1)NC[C@H](CS)N)C2=CC=CC=C2
In short: as §1

[6] = compound: COc1cc(Nc2ncc3c(n2)-c2ccc(Cl)cc2C(c2c(F)cccc2OC)=NC3)ccc1C(=O)O [alisertib]
In short: as §1

[7] = compound: COc1cc2nc(-c3cc(F)ccc3O)nc(N[C@@H]3CNC[C@H]3C(C)(C)O)c2cc1OC
In short: as §1

[8] = compound: COc1cc2ncnc(Nc3ccc(F)c(Cl)c3)c2cc1OCCCN1CCOCC1 [gefitinib]
In short: as §1

[9] = compound: CS(=O)(=O)CCNCc1ccc(-c2ccc3ncnc(Nc4ccc(OCc5cccc(F)c5)c(Cl)c4)c3c2)o1 [lapatinib]
In short: as §1

[10] = compound: C[C@@H](Oc1cc(-c2cnn(C3CCNCC3)c2)cnc1N)c1c(Cl)ccc(F)c1Cl [crizotinib]
In short: as §1

[11] = compound: C[C@H](C1=CC=C(C=C1)C(=O)NC2=C3C=CNC3=NC=C2)N
In short: as §1

[12] = compound: Cc1cc(Nc2cc(CN3CCOCC3)c3nc(C)c(Cc4ccc(Cl)cc4F)n3n2)n[nH]1 [gandotinib]
In short: as §1

[13] = compound: Cc1cc(Nc2cc(N3CCN(C)CC3)nc(Sc3ccc(NC(=O)C4CC4)cc3)n2)n[nH]1 [tozasertib]
In short: as §1

[14] = compound: Cc1ccc(-n2nc(C(C)(C)C)cc2NC(=O)Nc2ccc(OCCN3CCOCC3)c3ccccc23)cc1 [doramapimod]
In short: as §1

[15] = compound: Cc1cccc(CC(=O)N2CCc3c2ccc(-c2cn(C)c4ncnc(N)c24)c3F)n1
In short: as §1

[16] = compound: CNC(=O)c1ccc(Nc2ncc(C(F)(F)F)c(NCc3nccnc3N(C)S(C)(=O)=O)n2)cc1 [defactinib]
In short: as §1

[17] = compound: CS(=O)(=O)N1CCN(Cc2cc3nc(-c4cccc5[nH]ncc45)nc(N4CCOCC4)c3s2)CC1 [pictilisib]
In short: as §1

[18] = compound: Cc1ccc(NC(=O)c2ccc(CN3CC[C@H](N(C)C)C3)c(C(F)(F)F)c2)cc1Nc1nccc(-c2cncnc2)n1 [bafetinib]
In short: as §1

[19] = compound: CNc1nc(-c2ccc3c(N)n[nH]c3c2)cc(N2C[C@@H](C(=O)NC3CCCCC3)CC[C@H]2C)n1
In short: as §1

[20] = compound: C[C@H](Nc1ncnc2nc[nH]c12)c1cc2cccc(Cl)c2c(=O)n1-c1ccccc1 [duvelisib]
In short: as §1

Target | log2 fold change [1] | log2 fold change [2] | log2 fold change [3] | log2 fold change [4] | log2 fold change [5] | log2 fold change [6] | log2 fold change [7] | log2 fold change [8] | log2 fold change [9] | log2 fold change [10] | log2 fold change [11] | log2 fold change [12] | log2 fold change [13] | log2 fold change [14] | log2 fold change [15] | log2 fold change [16] | log2 fold change [17] | log2 fold change [18] | log2 fold change [19] | log2 fold change [20]
SREK1IP1 (UniProt Q8N9Q2) | inactive: 0.079 | inactive: -0.063 | inactive: 0.047 | inactive: 0.127 | inactive: -0.121 | inactive: -0.012 | inactive: 0.039 | inactive: -0.037 | inactive: -0.022 | inactive: 0.079 | inactive: 0.196 | inactive: -0.111 | inactive: 0.081 | inactive: -0.046 | inactive: -0.143 | – | – | – | – | –
SPATS2L isoform 2 (UniProt Q9NUQ6) | inactive: 0.146 | inactive: -0.039 | inactive: -0.015 | inactive: 0.075 | inactive: -0.017 | inactive: -0.007 | inactive: -0.018 | inactive: 0.096 | inactive: 0.153 | inactive: 0.013 | inactive: 0.268 | inactive: -0.116 | inactive: 0.032 | inactive: 0.048 | inactive: -0.148 | inactive: 0.075 | inactive: 0.062 | inactive: -0.024 | – | –
STAG2 (UniProt Q8N3U4) | inactive: -0.007 | inactive: 0.008 | inactive: 0.106 | inactive: -0.141 | inactive: -0.01 | – | inactive: -0.006 | – | inactive: -0.096 | inactive: 0.05 | inactive: 0.009 | inactive: 0.107 | inactive: -0.089 | inactive: 0.112 | inactive: -0.011 | – | – | – | – | –
SRSF8 (UniProt Q9BRL6) | inactive: -0.025 | inactive: 0.04 | inactive: -0.008 | inactive: -0.032 | inactive: 0.009 | inactive: -0.001 | inactive: 0.013 | inactive: 0.078 | inactive: -0.027 | inactive: 0.03 | inactive: -0.145 | inactive: -0.055 | inactive: 0.029 | inactive: 0.017 | inactive: 0.113 | inactive: -0.011 | inactive: -0.01 | inactive: -0.004 | inactive: -0.017 | inactive: 0.007
SPTY2D1 (UniProt Q68D10) | inactive: -0.038 | inactive: 0.193 | inactive: -0.01 | – | – | inactive: 0.025 | – | inactive: 0.014 | – | inactive: 0.107 | inactive: 0 | inactive: 0.169 | – | inactive: 0.227 | inactive: 0.015 | – | inactive: 0.178 | inactive: -0.286 | inactive: 0.068 | inactive: 0.036
ST3GAL4 isoform 4 (UniProt Q11206) | inactive: -0.168 | inactive: 0.206 | inactive: -0.065 | inactive: -0.015 | inactive: 0.245 | inactive: -0.294 | – | inactive: -0.205 | – | inactive: 0.143 | inactive: -0.087 | inactive: 0.173 | inactive: 0.023 | inactive: 0.008 | inactive: 0.121 | inactive: 0.141 | inactive: -0.103 | inactive: 0.019 | inactive: 0.088 | inactive: -0.071
SRGN (UniProt P10124) | active: -0.509 | inactive: 0.027 | inactive: 0.048 | inactive: 0.014 | inactive: -0.055 | – | inactive: 0.026 | – | inactive: 0.016 | inactive: -0.054 | inactive: -0.046 | inactive: -0.097 | inactive: 0.008 | inactive: -0.071 | inactive: 0.192 | inactive: 0.175 | inactive: -0.181 | inactive: -0.17 | inactive: 0.065 | inactive: 0.019
SPTAN1 (UniProt Q13813) | inactive: 0.005 | inactive: 0.022 | inactive: 0.015 | inactive: 0.015 | inactive: -0.024 | inactive: -0.018 | inactive: 0.016 | inactive: 0.008 | inactive: -0.015 | inactive: 0.008 | inactive: -0.043 | inactive: 0.019 | inactive: 0.01 | inactive: 0.009 | inactive: 0.007 | inactive: 0.001 | inactive: -0.02 | inactive: 0.002 | inactive: -0.006 | inactive: -0.018
STARD9 (UniProt Q9P2P6) | inactive: 0 | inactive: -0.008 | inactive: 0.059 | inactive: 0.01 | inactive: 0.063 | inactive: -0.072 | inactive: -0.081 | inactive: -0.002 | inactive: -0.006 | inactive: -0.048 | inactive: 0.031 | inactive: -0.157 | inactive: -0.007 | inactive: 0.095 | inactive: 0 | inactive: -0.011 | – | – | inactive: -0.015 | inactive: 0.007
